The results in this text go back to paper PMC12040169 (PLOS Biology, 2025).

Each structure is given as a SMILES string. The list shows a part of the results.

The experiment relates to T1, CTL2-GFP (C. trachomatis L2/434/Bu, GFP-expressing).
T1 construct: L2/434/Bu, GFP-expressing
Further details: species or system HeLa; Intracellular C. trachomatis growth in HeLa cells, bulk GFP fluorescence relative to DMSO. As to conditions: bulk GFP, single well; 28.5 h, 10 µM; inhibitor.
Take `Cc1ccccc1-c1cc(C(=O)N(C)C)c2cnn(C(C)C)c2n1` [CBK306245]: the “% of control remaining” value is listed as 110.472%.

Turning to `CC1=NN(c2ccccc2)C(=O)/C1=C(/C)NNC(=O)c1ccccn1` [CBK261837], the “% of control remaining” value came out at 88.0097%.

In the case of `COc1cc(NC(=O)c2ccc3c(c2)C(=O)N(Cc2ccco2)C3=O)c(C(=O)O)cc1OC` [CBK267436], the “% of control remaining” value is reported as 117.187%. For the molecule `CC(=O)N(C)c1nc(-c2ccccc2C)ccc1C(=O)NC1CCCCC1` [CBK106333], the “% of control remaining” value was determined as 118.855%. Take `CN(c1ncc(-c2ccccc2)cc1C(=O)NCc1ccco1)S(C)(=O)=O` [CBK076506]: the “% of control remaining” value is on record as 192.157%.

On to `Cc1onc(-c2ccccc2)c1CNC(=O)c1ccc(OC(F)(F)F)cc1` [CBK144080], for which the “% of control remaining” value is recorded as 116.381%. Turning to `Cc1ccc(CC2CCCN2CC(=O)NCc2ccccn2)cc1` (stereo not shown) [CBK304070], the “% of control remaining” value is 110.363%. The figure for `O=C(O)c1ccc(CNCc2ccc(-c3ccc(Cl)cc3)o2)cc1` [CBK269619C] is 109.681%; for `Cc1nn(C)cc1-c1cncn1CC(C)N1CCCCC1` (stereo not shown) [CBK281781] it is 137.104%; for `CCCc1nc(NC(CC)c2nc(C)c(C)s2)c2cnn(C)c2n1` (stereo not shown) [CBK307261] it is 133.954%. The figure for `COc1cccc(Nc2cc(-c3ccc(N4CCOCC4)cc3)ncn2)c1` [CBK090733] is 120.14%; for `O=C(NCCN1CCCCC1)C1CC(=O)N(Cc2ccncc2)C1` (stereo not shown) [CBK306629] it is 142.419%. As for `CCOc1cccc(OCC(=O)N2CCC(c3cc(C(=O)NC)c4ccccc4n3)C2)c1` (stereo not shown) [CBK285896], the figure is 141.122%; as for `Oc1ccc(/N=N/c2cccc(Br)c2)cc1/C=N/c1ccc(-c2nc3ncccc3o2)cc1` [CBK262009], 93.6053%; as for `CCCCCOc1ccc(-c2ccc(Cl)nn2)cc1` [CBK007044], 133.884%. `CC(NCc1ccc(S(N)(=O)=O)cc1)=C1C(=O)c2ccccc2C1=O` [CBK262692]: the “% of control remaining” value came out at 100%. `CCCCOc1nccnc1-c1cnn(C)c1` [CBK107085]: the “% of control remaining” value came out at 100%.

`NC(=O)C1CCN(C(=O)CN(c2ccccc2)S(=O)(=O)c2ccccc2[N+](=O)[O-])CC1` [CBK265320]: the “% of control remaining” value came to 100%. For `CC(C)(C)c1ccc(OCC(=O)Nc2ccc(S(=O)(=O)N3CCc4ccccc43)cc2)cc1` [CBK265352], the “% of control remaining” value worked out at 127.533%. As for `COc1cc(C#N)ccc1OCc1ccccc1` [CBK002577], the figure is 91.7488%; as for `CCn1cc(CN2C3CCC2CC(O)(c2cccc(F)c2)C3)c(C)n1` (stereo not shown) [CBK282755], 133.403%. Regarding `FC(F)(F)c1[nH]c2ncccc2c1CN1CCSCC1` [CBK283257], the “% of control remaining” value was 121.609%. The figure for `O=C(COc1ccccc1)Nc1ccc2oc(-c3cccnc3)nc2c1` [CBK262959] is 133.134%; for `COc1ccc2c(c1)c(C(=O)N1CCn3nc(CO)cc3C1)c(C)n2C` [CBK306764] it is 151.596%.

On to `COc1cc(OC)nc(C(NC(=O)C2CCN(C(=O)c3ccccc3)CC2)c2ccccc2)n1` (stereo not shown) [CBK059650], for which the “% of control remaining” value turned out to be 144.813%.

On to `Cc1ccc(OCCCC(=O)Nc2ccc(C(N)=O)cc2)c(C)c1` [CBK268032], for which the “% of control remaining” value was found to be 124.331%. The figure for `O=C(N[C@H]1CCN2C(=O)[C@@H](Cc3ccccc3)NC(=O)[C@H]12)c1cnccn1` [CBK289231] is 126.407%; for `COCC(=O)N1CCc2sccc2C1c1ccc(NC(=O)c2cccc(F)c2)cc1` (stereo not shown) [CBK286468] it is 132.002%; for `CN(C)C[C@H]1CC[C@]2(CC1)CN(C(=O)C1CC1)Cc1ccccc1O2` [CBK284920] it is 122.914%. Consider `CC(=O)NCCCCCC(=O)Nc1ccc(Cl)cn1` [CBK091341], for which the “% of control remaining” value is on record as 118.073%. For `NS(=O)(=O)c1ccc(NC(=S)NNC(=O)c2cc(Br)ccc2Cl)cc1` [CBK266970], the “% of control remaining” value was found to be 122.667%. In the case of `O=C(c1ccc2c(c1)OCCO2)N1CCN(C(=O)c2ccco2)CC1` [CBK144480], the “% of control remaining” value is on record as 110.366%. For the molecule `c1cc(OCc2cccs2)cc(N2CCNCC2)c1` [CBK022557F], the “% of control remaining” value is 150.524%. As for `CC(C)C1C2CCCCC2=NN1C(=O)/C=C/C(=O)O` (stereo not shown) [CBK286862], the figure is 125.946%; as for `O=C(NCCc1ccccc1)c1ccccc1NS(=O)(=O)N1CCCC1` [CBK268407], 109.646%. The figure for `O=C(COc1ccc2oc3c(c2c1)CCCC3)Nc1ccncc1` [CBK266227] is 123.646%; for `Nc1nc(N)c2ncn([C@H]3C[C@@H](O)[C@@H](CO)O3)c2n1` [CBK201208] it is 115.207%. The figure for `CC(C)Nc1nccnc1-c1cccc(O)c1` [CBK037089] is 88.6758%; for `COC(=O)C1=C(C)N=C2SCCC(=O)N2C1c1ccc(C(C)C)cc1` (stereo not shown) [CBK073523] it is 119.849%. For `COc1ccc(C(NC(=O)c2c(C)nc3sccn23)C2CC(O)C2)cn1` (stereo not shown) [CBK307330], the “% of control remaining” value stood at 72.7919%. The figure for `CN(C)CCOCc1ncccc1OCCOC1CCCCO1` (stereo not shown) [CBK045662] is 103.921%; for `CC(=O)N1CCC[C@H]2NC(=O)CNC(=O)C3(C/C=C/C[C@H]21)CCN(C(=O)c1cc(C)no1)CC3` [CBK292176] it is 118.761%; for `Cc1cccc2c3c([nH]c12)CCN(C(=O)[C@@H]1C[C@@H]2C=C[C@H]1C2)C3` [CBK281656] it is 126.233%. As for `Cc1cc2ncc(-c3[nH]ncc3[N+](=O)[O-])cn2n1` [CBK269106], the figure is 138.36%. The figure for `Cc1ccc(F)c(CN2CCN(CCO)[C@@H]3CS(=O)(=O)C[C@@H]32)c1` [CBK307699] is 126.569%; for `O=C(N/N=C/c1c[nH]nc1-c1ccccc1)c1cccnc1` [CBK262461] it is 113.93%; for `CN(C)CCN(C)c1cncc(-c2ccc3c(c2)OCO3)n1` [CBK065897] it is 164.439%. Consider `Cc1ccc(C(=O)NNC(=S)Nc2ccc(S(N)(=O)=O)cc2)cc1[N+](=O)[O-]` [CBK266866], for which the “% of control remaining” value amounted to 169.319%. Consider `Cc1nccn1CC1(O)CCN(Cc2ccccc2F)CC1` [CBK284961], for which the “% of control remaining” value is 138.785%. The figure for `COc1ccc(F)cc1-c1ccccc1CC1(C(=O)NCc2cccs2)CCOCC1` [CBK286416] is 95.4037%.

As for `CN(C)C(=O)C1(Cc2ccc(-c3cccs3)cc2)CCN(C(=O)Cc2ccccc2)CC1` [CBK285784], the “% of control remaining” value stood at 131.837%.

`COc1ccc(SCC(=O)O)cc1` [CBK111455]: the “% of control remaining” value came out at 149.714%. The figure for `CN1CCCCC[C@@H]2[C@@H]1[C@H](c1ccccc1)CN2C(=O)CN1CCCCCC1=O` [CBK285524] is 111.875%; for `O=C1c2ccccc2S(=O)(=O)N1CC(O)Cn1c2ccc(Br)cc2c2cc(Br)ccc21` (stereo not shown) [CBK262347] it is 94.5647%; for `COc1ccc(OC)c(C(C)NC(=O)C2CCN(CCc3c[nH]c4ccccc34)CC2)c1` (stereo not shown) [CBK148763] it is 162.568%.

As to `O=C(C1CCCO1)N1CCC(c2ccc(F)cc2)CC1` (stereo not shown) [CBK283484], the “% of control remaining” value is 137.32%. As for `CC(C)Oc1ccccc1CN(C)C(C)c1ccc(S(N)(=O)=O)cc1` (stereo not shown) [CBK305436], the figure is 73.8421%.

For `COc1cccc(CN(Cc2ccco2)Cc2cncn2C)c1` [CBK282497], the “% of control remaining” value turned out to be 125.039%. For the molecule `O=C(Cn1cccc2cc(-c3cccs3)nc1-2)NC1CC1` [CBK281897], the “% of control remaining” value is 88.4561%. On to `CCn1ncc(Cn2cc(NC(=O)C3CCCCC3C(=O)O)cn2)c1C` (stereo not shown) [CBK286859], for which the “% of control remaining” value amounted to 122.371%. The figure for `COC(=O)c1ccc(N2C(=O)CC(NCCc3ccc(S(N)(=O)=O)cc3)C2=O)cc1` (stereo not shown) [CBK262859] is 107.954%; for `CC1(C)CN(c2ccc(Cl)cn2)C1=O` [CBK018550] it is 132.563%; for `O=C1c2ccc(Oc3cccc([N+](=O)[O-])c3)cc2C(=O)N1c1ccccn1` [CBK261190] it is 91.018%. In the case of `COCCNC(=O)C1CCCCC1C(=O)O` (stereo not shown) [CBK269135], the “% of control remaining” value was determined as 79.2716%. As for `Cc1cccc(CN(CC(C)(C)CN)C(=O)Nc2ccccc2C(F)(F)F)n1` [CBK002409C], the figure is 112.878%. The figure for `FC(F)(F)c1cccc(-c2cn3ccnc3c(NCCc3ccccn3)n2)c1` [CBK066491] is 93.0687%. With `Cc1c(C(=O)O[C@H]2C[C@@H](c3ccc(F)cc3)N(C)C2=O)cnn1C` [CBK283616], the “% of control remaining” value was 89.0831%. The figure for `COC(=O)CCc1ccc(S(=O)(=O)N2CCCN(Cc3c[nH]c4ccc(OC)cc34)CC2)cc1` [CBK062985] is 151.626%; for `N=C(N)SCC1CNC(=N)S1` (stereo not shown) [CBK260991] it is 111.31%. As for `COc1ccc(F)c(CN(CC(C)(C)CN)C(=O)Nc2ccc(C(C)(C)C)cc2)c1` [CBK002461C], the figure is 84.943%; as for `Cc1ccc(CN2CCNCC2CCO)o1` (stereo not shown) [CBK269844], 123.622%; as for `COc1cc(/C=N/NC(=O)CCc2c(C)n[nH]c2C)ccc1O` [CBK262925], 128.202%.

With `CSc1ccc(SC/C(N)=N/O)cc1` [CBK025411C], the “% of control remaining” value is 121.612%. The figure for `CC(CC(=O)N1CCCC(c2cc3cccnc3[nH]2)C1)n1ccnc1` (stereo not shown) [CBK285034] is 93.5449%; for `CCCCSc1nc(N)cc(N2CCCC(C(=O)N3CCOCC3)C2)n1` (stereo not shown) [CBK307210] it is 113.875%; for `O=C(c1cccc(S(=O)(=O)N2CCOCC2)c1)N(Cc1ccc(F)cc1)Cc1ccco1` [CBK265885] it is 125.265%. On to `CCCCNC(=S)NC1CC[C@@]2(Cc3ccc(OC)c(OC)c3)CCN(C)[C@H]2C1` (stereo partly shown) [CBK023805], for which the “% of control remaining” value is 147.876%.

For `Cc1ccc(N)c(C(=O)CCC(=O)O)c1` [CBK017815C], the “% of control remaining” value was determined as 129.722%. As for `CCCn1c(SCC(=O)N2CCN(S(=O)(=O)c3ccc(C)cc3C)CC2)n[nH]c1=O` [CBK295590], the figure is 103.875%.
